Results on one compound are retold here after patent US9868746B2, “Substituted 5-aminothieno[2,3-C]pyridazine-6-carboxamide analogs as positive allosteric modulators of the muscarinic acetylcholine receptor M4” (Vanderbilt University, priority 2012, dated 2018).

Amino acid sequences for entries named in this document (tags omitted).
UniProt P08173, whole entry: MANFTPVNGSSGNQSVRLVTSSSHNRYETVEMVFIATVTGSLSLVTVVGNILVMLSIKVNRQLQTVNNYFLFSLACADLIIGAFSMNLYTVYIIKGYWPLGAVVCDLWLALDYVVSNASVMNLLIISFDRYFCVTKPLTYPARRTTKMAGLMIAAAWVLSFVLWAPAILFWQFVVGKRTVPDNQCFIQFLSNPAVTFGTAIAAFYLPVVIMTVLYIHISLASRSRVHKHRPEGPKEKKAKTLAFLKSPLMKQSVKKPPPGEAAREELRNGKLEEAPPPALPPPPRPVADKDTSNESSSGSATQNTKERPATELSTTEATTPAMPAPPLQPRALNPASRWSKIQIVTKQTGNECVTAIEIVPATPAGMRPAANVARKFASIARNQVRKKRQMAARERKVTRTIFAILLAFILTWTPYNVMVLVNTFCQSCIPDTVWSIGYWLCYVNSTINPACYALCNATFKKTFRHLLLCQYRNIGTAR

The assay addresses mAChR M4 (Homo sapiens, UniProt P08173). Kind of assay: mAChR M4 cell-based functional assay (calcium mobilization, potentiation of EC20 acetylcholine response). (In general: Calcium assays in cells follow changes in intracellular calcium, usually with a dye or a luminescent sensor.)

The structures given here were assigned with low confidence; some may be wrong.

One may read the EC50 as the concentration giving half of the maximal effect.

As for `Cc1nnc2sc(C(=O)NC3CN(C(=O)Nc4ccc(F)cc4)C3)c(N)c2c1C` [Example B351], for the setting “% ACh maximum at 30 μM”, the “Emax (%)*” value came out at 62%. Also, the EC50 (mAChR M4 cell-based functional assay, >10,000 estimated for low potency compounds without plateau) was 24 nM.
